Here are results for 63 compounds from PubChem BioAssay AID493014 (National Center for Advancing Translational Sciences (NCATS), 2011).

This assay in a line: qHTS Assay to Find Inhibitors of Chronic Active B-Cell Receptor Signaling. Conditions: ABC-DLBCL IkBa-CBG/CBR reporter, luminescence ratio (green luciferase fused to IkBa over red control in TMD8 lymphoma cells), 4 h. Put shortly:
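TMD8 ABC-DLBCL cells carrying doxycycline-inducible green luciferase fused to IkappaBalpha plus unfused red luciferase were exposed to compounds (up to 46 uM) for 4 hrs at 37C. Activity came from the overlap-corrected green/red luminescence ratio.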
(In qHTS, concentration-response curves come from the screen itself.)

[1] abbreviates: measured here: CBR red luminescence, cell number.
Where [2] appears, read: measured here: IkBa-CBG green luminescence.

Some of the results follow. Shown are side measurements of this screen, not its main read-out; they come without a call. The list favours compounds with an active or inconclusive main result. Potencies come from curve fits of mixed quality, noted in brackets.

Take `COc1ccc(C(CNC(=O)c2ccc(-n3cnnn3)cc2)N2CCOCC2)cc1` (stereo unspecified): the half-maximal activity concentration (AC50) under setting [1] is 3.16 µM [rising, partial curve, poor fit].

As for `NC(=O)CCCn1c(C(=O)c2ccc(Cl)cc2)c2ccc(C(F)(F)F)cc2[n+]1[O-]`, the AC50 under setting [1] was 1.03 µM [falling, full curve, poor fit].

As to `COc1cc(NC(=O)CSc2nnnn2C2CCCC2)cc(OC)c1`, under setting [1], the half-maximal activity concentration (AC50) is 20 µM [rising, single point].

As to `CCc1ccc(NC(=O)c2cc(Br)ccc2Br)cc1`, the AC50 under setting [1] was 7.08 µM [falling, partial curve].

For `CCOc1ccccc1N1CSC2=C(C#N)C(c3c(OC)ccc4ccccc34)CC(=O)N2C1` (stereo unspecified), the concentration at half-maximal activity (AC50) under setting [2] was 14.1 µM [falling, partial curve, poor fit].

`CC(C)(C)OC(=O)NCC12C=CC(O1)C1C(=O)N(Cc3ccccc3)C(=O)C12` (stereo unspecified): the AC50 under setting [1] was 2.91 µM [falling, single point].

As for `CCOc1ccc(Nc2nc3ccccc3n3cnnc23)cc1`, the AC50 under setting [1] is 2.82 µM [rising, full curve, poor fit].

`CCCCN1Cc2cc(C(=O)c3cc(OC)ccc3O)cnc2NC1=O`: under setting [1], the AC50 was 0.708 µM [rising, full curve].

On to `CCCCOc1ccc(C(=O)N/C(=C/C=C/c2ccccc2)C(=O)NCCO)cc1`, for which the half-maximal activity concentration (AC50) reads like this: under setting [1], 20.6 µM [rising, single point]; under setting [2], 25.9 µM [falling, partial curve, poor fit].

Take `CCOC(=O)Cn1ccc(NC(=O)COc2ccc(F)cc2)n1`: the concentration at half-maximal activity (AC50) under setting [1] is 10 µM [falling, partial curve].

With `Cc1ccc(/C=C/C(=O)NCCc2cccc(Cl)c2)o1`, the half-maximal activity concentration (AC50) under setting [1] is 22.4 µM [falling, single point].

As to `COc1ccc(/C=C/C(=O)Nc2ccccc2C(F)(F)F)cc1`, under setting [1], the concentration at half-maximal activity (AC50) was 2.06 µM [falling, full curve].

Consider `CC[C@@H]1CC=C[C@H]2[C@H]1C(=O)N(Cc1ccccc1)[C@H]2c1ccoc1`, for which, under setting [1], the AC50 is 35.5 µM [falling, single point].

For `COc1cc2nc(Nc3cccc(F)c3)nc(N)c2cc1OC`, the AC50 under setting [1] is 35.5 µM [falling, single point].

For the compound `COc1cc(NC(=O)CSc2nc3c(c(=O)n(C)c(=O)n3C)n2C)cc(OC)c1`, the concentration at half-maximal activity (AC50) under setting [1] is 12.6 µM [falling, partial curve, poor fit].

As for `COc1ccc(/C=N/NC(=O)c2cccc(Br)c2)cc1Cn1cc(Cl)cn1`, under setting [1], the AC50 was 10 µM [falling, partial curve].

With `COc1cc(NC(=O)C2C3C=CC(C3)C2C(=O)O)ccc1NC(=O)c1ccccc1` (stereo unspecified), the AC50 under setting [1] is 35.5 µM [falling, single point].

As for `c1ccc(SCc2nc(-c3cccnc3)no2)cc1`, the AC50 under setting [1] is 0.58 µM [falling, full curve, poor fit].

With `CC(=O)Nc1ccc(NC(=O)c2ccccc2C)cc1`, the half-maximal activity concentration (AC50) under setting [1] is 8.2 µM [falling, partial curve, poor fit].

With `NC(=O)c1ccsc1NC(=O)COC(=O)CCCOc1ccccc1`, the AC50 under setting [1] was 2.31 µM [falling, partial curve, poor fit].

For the compound `O=C(Nc1ccc(Cl)cc1)NC1CCCC1Cc1ccco1` (stereo unspecified), the concentration at half-maximal activity (AC50) under setting [1] is 4.11 µM [falling, single point].

For the compound `S=C(Nc1ccc2nsnc2c1)NC1CCCCC1`, the half-maximal activity concentration (AC50) under setting [1] is 16.4 µM [falling, single point].

In the case of `COc1cc(/C=C(\C#N)c2nnc(N3CCOCC3)n2-c2ccccc2)ccc1O`, the AC50 under setting [1] was 5.8 µM [falling, partial curve, poor fit].

`COC(=O)Cn1ncc2c3ccccc3n(C)c2c1=O`: the AC50 under setting [1] is 20 µM [rising, single point].

Turning to `O=C(CCN1C(=O)/C(=C/C=C/c2ccccc2)SC1=S)Nc1cccnc1`, under setting [1], the half-maximal activity concentration (AC50) is 1.84 µM [falling, full curve].

Take `Cc1cc(/C=C2/NC(=O)NC2=O)c(C)n1-c1ccc(N2CCOCC2)cc1`: under setting [1], the AC50 is 35.5 µM [rising, partial curve, poor fit].

Consider `COC(=O)c1sccc1NC(=O)c1c(-c2ccccc2)noc1C`, for which the AC50 under setting [1] was 14.6 µM [rising, partial curve, poor fit].

As to `CCCCSCCCNC(=O)CS(=O)Cc1nc(-c2cccc(C)c2)oc1C` (stereo unspecified), the AC50 under setting [1] is 18.4 µM [falling, single point].

With `Cc1ccsc1C(=O)Nc1nnc(-c2ccco2)o1`, under setting [1], the AC50 is 9.2 µM [falling, partial curve].

As for `CC(C)c1cc(-c2cc(-c3ccc(Cl)cc3)on2)nc(NCC2CC2)n1`, under setting [1], the half-maximal activity concentration (AC50) is 25.1 µM [rising, partial curve, poor fit].

With `O=C(Nc1ccc(Cl)cc1)c1ccc2nsnc2c1`, the AC50 under setting [1] was 2.82 µM [falling, full curve, poor fit].

Consider `CC(=O)Nc1ccc(S(=O)(=O)CCC#N)cc1`, for which the half-maximal activity concentration (AC50) under setting [1] was 16.4 µM [rising, single point].

For the compound `Cn1cc(Br)c(C(=O)N/N=C/c2cccc(OC3CSC3)c2)n1`, the concentration at half-maximal activity (AC50) under setting [1] is 11.6 µM [falling, partial curve].

Consider `CC(=O)c1sc(-c2ccc(Cl)cc2)nc1C`, for which the AC50 under setting [1] is 3.55 µM [rising, full curve, poor fit].

Take `Cc1ccc(O)c(CCc2ccc(O)cc2)n1`: the AC50 under setting [1] was 5.01 µM [falling, single point].

For the compound `CCOc1ccc(-c2nnn(CC(=O)NCc3ccco3)n2)cc1`, the half-maximal activity concentration (AC50) under setting [1] was 17.8 µM [rising, single point].

`Cc1ccc(-n2ncc(C(=O)N3CCc4ccccc4C3)c2NC(=O)c2ccco2)cc1C`: the AC50 under setting [1] was 5.17 µM [rising, full curve].

In the case of `Cc1ccc(NC(=O)CN(C)C(=O)CNC(=O)c2ccc3c(c2)OCO3)cc1`, the AC50 under setting [1] is 20.6 µM [rising, single point].

On to `COc1cc(NC2c3ccccc3C(=O)N2Cc2ccccc2Cl)cc(OC)c1` (stereo unspecified), for which, under setting [1], the AC50 was 14.1 µM [falling, single point].

With `COc1cc(CNCc2ccccn2)ccc1OCc1ccc(Cl)cc1`, the AC50 under setting [1] was 1.3 µM [falling, full curve, poor fit].

Regarding `NC(=O)CSc1nnc(-c2cnccn2)n1-c1ccccc1`, under setting [1], the AC50 was 23.1 µM [falling, single point].

As to `COc1ccc(C2(CNC(=O)c3cc([N+](=O)[O-])cc([N+](=O)[O-])c3)CCCC2)cc1OC`, under setting [1], the AC50 was 29.1 µM [falling, single point].

With `Cc1cc(OCC(=O)Nc2ccncc2)c(C)cc1Br`, under setting [1], the concentration at half-maximal activity (AC50) is 6.51 µM [rising, single point].

As for `CSC1=C(C#N)C(c2ccccc2Cl)C(C(C)=O)=C(C)N1` (stereo unspecified), under setting [1], the half-maximal activity concentration (AC50) is 11.6 µM [falling, partial curve, poor fit].

On to `Clc1ccc(C(Cn2ccnc2)OCc2c(Cl)cccc2Cl)c(Cl)c1` (stereo unspecified), for which, under setting [1], the AC50 was 20.6 µM [falling, single point].

Turning to `Cc1ccccc1C(=O)NNC(=O)CSc1nc(-c2ccccc2)cc(=O)[nH]1`, the concentration at half-maximal activity (AC50) under setting [1] was 2.82 µM [falling, partial curve].

As to `Cc1cccc2c1-c1sc(C(=O)NCCCN3CCc4ccccc4C3)cc1CO2`, the concentration at half-maximal activity (AC50) is, setting by setting: under setting [1], 15.8 µM [falling, partial curve]; under setting [2], 20 µM [rising, partial curve, poor fit].

Regarding `Cc1ccc(NC(=O)c2nc[nH]c2C(=O)NCCCCNC(=O)c2[nH]cnc2C(=O)Nc2ccc(C)cc2)cc1`, the AC50 under setting [1] was 0.00411 µM [rising, full curve, poor fit].

With `CCS(=O)(=O)CCSC(=N)N`, under setting [1], the AC50 is 0.146 µM [falling, full curve, poor fit].

For the compound `Oc1ccc(Cl)cc1-c1cc(-c2cccc(Br)c2)n[nH]1`, the AC50 under setting [1] is 11.6 µM [falling, single point].

In the case of `COc1ccc2nc(/N=C(\N)NC(=O)Nc3ccccc3)nc(C)c2c1`, the half-maximal activity concentration (AC50) under setting [1] was 2.91 µM [rising, partial curve, poor fit].

On to `Oc1ccc(Br)cc1C=Nc1cccn2cc(-c3ccccc3)nc12`, for which the AC50 under setting [1] is 14.1 µM [falling, single point].

Take `COc1cc(NC(=O)COC(=O)Cc2ccc(-c3ccccc3)cc2)cc(OC)c1`: under setting [2], the concentration at half-maximal activity (AC50) is 23.1 µM [falling, partial curve, poor fit].

With `CCCCNc1ccccc1C(=O)OCC(=O)Nc1ccc(S(N)(=O)=O)cc1`, the concentration at half-maximal activity (AC50) under setting [1] is 16.4 µM [falling, partial curve, poor fit].

As to `O=C(CN1CCOCC1)N/N=C/c1cc2ccccc2nc1Cl`, the AC50 under setting [1] is 16.4 µM [rising, partial curve, poor fit].

Regarding `C=CCSC1=C(C#N)C(c2cc(Br)c(O)c(OC)c2)CC(=O)N1` (stereo unspecified), the concentration at half-maximal activity (AC50) under setting [1] is 29.1 µM [falling, single point].

As for `Cc1nn2c(c1-c1ccccc1)NC1=C(C(=O)CCC1)C2c1ccccc1` (stereo unspecified), the AC50 under setting [1] is 14.1 µM [falling, single point].

As for `O=C(/C=C/c1ccccc1[N+](=O)[O-])Nc1cccnc1`, under setting [1], the AC50 is 6.51 µM [rising, single point].

Take `CCC(=O)OC1(C(=O)CCl)[C@@H](C)C[C@H]2[C@@H]3CCC4=CC(=O)C=C[C@]4(C)[C@@]3(F)[C@@H](O)C[C@@]21C` (stereo partly specified): the AC50 under setting [1] is 11.6 µM [falling, single point].

On to `CC(C)CCn1c(=O)c(C(=O)N/N=C/c2cccc(F)c2)c(O)c2ccccc21`, for which, under setting [1], the concentration at half-maximal activity (AC50) is 18.4 µM [falling, partial curve, poor fit].

Turning to `O=C1c2ccccc2C(=O)C1(O)O`, the AC50 is, setting by setting: under setting [1], 29.1 µM [rising, single point]; under setting [2], 29.1 µM [falling, single point].

Consider `CC(NC(=O)C12CC3CC(CC(C3)C1)C2)C(=O)N/N=C/C1=C(N2CCOCC2)C(=C\c2ccccc2)/CC1` (stereo unspecified), for which the AC50 under setting [1] is 2.91 µM [falling, partial curve].

Regarding `CCOC(=O)c1c(-c2ccc(OC)cc2)csc1/N=C/C1=C(O)CCCC1=O`, under setting [1], the concentration at half-maximal activity (AC50) was 25.9 µM [falling, partial curve].

For orientation: AC50 means the concentration at which the activity in the assay is half-maximal.
